Test results from PMC11166643.
Read-outs that look alike come from different tables or passages of the source. No constants are given. Whether binding was seen depends on the method and setting. In cells and extracts the contact can be indirect. Some entries that bind do so weakly or less than the wild type. For part of these data: Tags and fused reporters may be left off the sequences shown. Blank lines part the entries; values can stand above or below the molecule they belong to.

Protein sequences, listed by entry. Tags and fused reporters are not part of them.
UniProt Q16665: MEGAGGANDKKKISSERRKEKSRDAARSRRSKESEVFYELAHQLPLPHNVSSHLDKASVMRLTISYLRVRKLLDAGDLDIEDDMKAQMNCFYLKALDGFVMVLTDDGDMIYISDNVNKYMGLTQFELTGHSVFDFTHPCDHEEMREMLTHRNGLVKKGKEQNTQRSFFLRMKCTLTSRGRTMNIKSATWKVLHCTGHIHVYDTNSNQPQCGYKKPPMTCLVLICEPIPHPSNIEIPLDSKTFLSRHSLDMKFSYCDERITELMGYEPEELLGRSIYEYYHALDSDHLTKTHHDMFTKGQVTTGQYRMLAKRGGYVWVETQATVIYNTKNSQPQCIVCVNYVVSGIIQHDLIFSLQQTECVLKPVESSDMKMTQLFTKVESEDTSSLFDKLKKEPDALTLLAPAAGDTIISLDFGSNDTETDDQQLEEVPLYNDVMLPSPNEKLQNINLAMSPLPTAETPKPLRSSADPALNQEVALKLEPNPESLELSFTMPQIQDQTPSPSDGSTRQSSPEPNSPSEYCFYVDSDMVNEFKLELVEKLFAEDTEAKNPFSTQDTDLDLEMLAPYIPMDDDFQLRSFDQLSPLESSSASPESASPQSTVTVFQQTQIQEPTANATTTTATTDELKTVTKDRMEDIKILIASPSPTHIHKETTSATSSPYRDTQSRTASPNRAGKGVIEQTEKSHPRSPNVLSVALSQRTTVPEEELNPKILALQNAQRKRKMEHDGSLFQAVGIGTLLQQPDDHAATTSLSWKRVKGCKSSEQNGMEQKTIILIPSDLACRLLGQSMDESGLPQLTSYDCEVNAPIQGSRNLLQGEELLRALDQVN
UniProt Q9UNE7: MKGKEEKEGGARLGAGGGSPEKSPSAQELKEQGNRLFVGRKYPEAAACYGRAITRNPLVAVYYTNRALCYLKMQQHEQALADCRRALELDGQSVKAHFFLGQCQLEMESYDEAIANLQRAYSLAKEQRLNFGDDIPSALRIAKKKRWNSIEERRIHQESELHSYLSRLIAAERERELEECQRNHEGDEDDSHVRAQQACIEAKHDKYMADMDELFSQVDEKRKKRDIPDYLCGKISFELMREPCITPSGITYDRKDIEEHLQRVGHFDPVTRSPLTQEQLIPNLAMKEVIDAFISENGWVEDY

What was measured:
[1] = target: T1, myc-DAB2IP C-terminal mutant (564-1189) (UniProt Q5VWQ8); test: co-IP; HEK293T co-transfected with HA-STUB1 and myc-DAB2IP mutants; Myc antibody immunoprecipitation, STUB1 detected by HA antibody
T1 sequence: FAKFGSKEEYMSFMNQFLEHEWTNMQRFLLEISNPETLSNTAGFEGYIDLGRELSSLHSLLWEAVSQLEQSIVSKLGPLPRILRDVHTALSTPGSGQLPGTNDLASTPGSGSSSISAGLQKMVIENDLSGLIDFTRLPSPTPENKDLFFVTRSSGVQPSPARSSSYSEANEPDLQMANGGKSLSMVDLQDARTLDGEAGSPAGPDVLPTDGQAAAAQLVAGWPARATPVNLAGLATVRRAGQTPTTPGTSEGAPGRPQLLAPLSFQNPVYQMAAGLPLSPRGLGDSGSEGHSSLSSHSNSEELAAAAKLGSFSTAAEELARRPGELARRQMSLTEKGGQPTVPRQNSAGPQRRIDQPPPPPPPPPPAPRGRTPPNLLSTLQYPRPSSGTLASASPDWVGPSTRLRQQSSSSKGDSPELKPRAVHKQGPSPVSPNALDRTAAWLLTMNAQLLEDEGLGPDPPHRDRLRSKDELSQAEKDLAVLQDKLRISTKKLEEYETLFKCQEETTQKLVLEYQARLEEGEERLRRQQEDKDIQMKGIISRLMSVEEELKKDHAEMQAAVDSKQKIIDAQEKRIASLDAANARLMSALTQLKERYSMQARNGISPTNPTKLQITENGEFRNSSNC

[2] = target: T2, myc-DAB2IP N-terminal mutant (1-563) (UniProt Q5VWQ8); test: as above
T2 sequence: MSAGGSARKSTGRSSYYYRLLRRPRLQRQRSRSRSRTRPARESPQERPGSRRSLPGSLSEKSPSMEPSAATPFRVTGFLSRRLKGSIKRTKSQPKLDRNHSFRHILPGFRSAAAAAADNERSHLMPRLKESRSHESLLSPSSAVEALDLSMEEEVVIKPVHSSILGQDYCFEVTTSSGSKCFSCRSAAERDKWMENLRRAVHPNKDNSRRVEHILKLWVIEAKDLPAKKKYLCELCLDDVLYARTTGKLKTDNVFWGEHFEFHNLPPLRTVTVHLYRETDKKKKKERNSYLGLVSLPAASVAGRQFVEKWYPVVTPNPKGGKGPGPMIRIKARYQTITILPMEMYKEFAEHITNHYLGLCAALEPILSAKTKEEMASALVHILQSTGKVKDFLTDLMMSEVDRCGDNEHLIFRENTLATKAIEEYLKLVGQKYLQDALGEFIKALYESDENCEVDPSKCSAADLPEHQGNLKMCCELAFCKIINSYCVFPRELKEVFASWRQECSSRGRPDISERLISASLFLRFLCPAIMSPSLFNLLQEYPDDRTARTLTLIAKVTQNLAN

[3] = target: HIF-1α (HEK293T, hypoxia) (human (endogenous in HEK293T)) (UniProt Q16665); test: proximity ligation; PLA in fixed HEK293T cells with control (NC) or DAB2IP overexpression under hypoxic condition; Duolink kit
[4] = target: HIF-1α (HEK293T, hypoxia) (human (endogenous in HEK293T)) (UniProt Q16665); test: co-IP; HEK293T cells transfected with DAB2IP plasmid (for Fig. 4F pcDNA3.1-DAB2IP at the indicated concentrations) under hypoxic condition; western blot
[5] = target: T3, DAB2IP (endogenous, MCF7) (human (endogenous in MCF7)) (UniProt Q5VWQ8); test: co-IP; endogenous proteins in MCF7 cells under hypoxic condition, detected by western blot; also with DAB2IP knocked down by siRNA at the indicated concentrations
T3 sequence: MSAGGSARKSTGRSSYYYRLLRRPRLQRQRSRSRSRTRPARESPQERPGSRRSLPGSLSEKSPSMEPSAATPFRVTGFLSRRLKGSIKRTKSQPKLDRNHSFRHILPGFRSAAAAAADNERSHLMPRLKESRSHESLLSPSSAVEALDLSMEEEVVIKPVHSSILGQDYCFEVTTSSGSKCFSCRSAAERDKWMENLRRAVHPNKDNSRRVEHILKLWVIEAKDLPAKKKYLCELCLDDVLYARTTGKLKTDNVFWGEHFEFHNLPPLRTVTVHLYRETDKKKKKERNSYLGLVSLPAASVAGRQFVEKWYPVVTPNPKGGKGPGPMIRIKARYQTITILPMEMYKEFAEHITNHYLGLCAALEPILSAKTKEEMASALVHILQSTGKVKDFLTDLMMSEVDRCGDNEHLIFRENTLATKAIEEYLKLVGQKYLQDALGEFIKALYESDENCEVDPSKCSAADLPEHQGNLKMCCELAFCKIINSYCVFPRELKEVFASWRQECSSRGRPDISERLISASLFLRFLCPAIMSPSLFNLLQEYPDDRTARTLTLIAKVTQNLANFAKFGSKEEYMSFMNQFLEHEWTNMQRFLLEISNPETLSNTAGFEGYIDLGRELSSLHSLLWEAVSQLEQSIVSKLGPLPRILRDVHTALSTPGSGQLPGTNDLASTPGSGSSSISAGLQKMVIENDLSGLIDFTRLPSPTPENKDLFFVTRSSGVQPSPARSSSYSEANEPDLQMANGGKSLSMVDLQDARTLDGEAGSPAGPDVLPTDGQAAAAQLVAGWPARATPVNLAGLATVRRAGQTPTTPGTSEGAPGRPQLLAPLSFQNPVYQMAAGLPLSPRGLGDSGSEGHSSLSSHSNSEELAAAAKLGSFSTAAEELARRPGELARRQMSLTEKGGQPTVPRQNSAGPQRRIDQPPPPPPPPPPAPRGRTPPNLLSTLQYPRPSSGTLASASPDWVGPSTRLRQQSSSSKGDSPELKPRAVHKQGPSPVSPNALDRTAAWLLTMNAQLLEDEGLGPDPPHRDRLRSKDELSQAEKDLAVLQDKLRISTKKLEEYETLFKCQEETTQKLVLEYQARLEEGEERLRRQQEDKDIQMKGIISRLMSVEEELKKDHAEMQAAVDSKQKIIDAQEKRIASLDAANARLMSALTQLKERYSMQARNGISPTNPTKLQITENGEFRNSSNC

[6] = target: HIF-1α (endogenous, MCF7) (human (endogenous in MCF7)) (UniProt Q16665); test: as above
[7] = target: STUB1 (endogenous, MCF7) (human (endogenous in MCF7)) (UniProt Q9UNE7); test: as above
[8] = target: HIF-1α (endogenous, MCF7) (human (endogenous in MCF7)) (UniProt Q16665); test: as above; remark: listed apart in the source
[9] = target: HIF-1α (HEK293T, hypoxia) (human (endogenous in HEK293T)) (UniProt Q16665); test: co-IP; HEK293T cells transfected with DAB2IP plasmid (for Fig. 4F pcDNA3.1-DAB2IP at the indicated concentrations) under hypoxic condition; western blot; remark: listed apart in the source

binding [1]: binds
binding [2]: no binding
Molecule: HA-STUB1 (from UniProt Q9UNE7 1-303) (enzyme)

binding [3]: binds
binding [4]: binds
Molecule: STUB1 (endogenous, HEK293T) (from UniProt Q9UNE7 1-303) (enzyme)

binding [5]: binds
binding [6]: binds
Molecule: STUB1 (endogenous, MCF7) (from UniProt Q9UNE7 1-303) (enzyme)

binding [7]: binds
binding [8]: binds
B1: DAB2IP (endogenous, MCF7) (protein, UniProt Q5VWQ8 1-1189)
chain: MSAGGSARKSTGRSSYYYRLLRRPRLQRQRSRSRSRTRPARESPQERPGSRRSLPGSLSEKSPSMEPSAATPFRVTGFLSRRLKGSIKRTKSQPKLDRNHSFRHILPGFRSAAAAAADNERSHLMPRLKESRSHESLLSPSSAVEALDLSMEEEVVIKPVHSSILGQDYCFEVTTSSGSKCFSCRSAAERDKWMENLRRAVHPNKDNSRRVEHILKLWVIEAKDLPAKKKYLCELCLDDVLYARTTGKLKTDNVFWGEHFEFHNLPPLRTVTVHLYRETDKKKKKERNSYLGLVSLPAASVAGRQFVEKWYPVVTPNPKGGKGPGPMIRIKARYQTITILPMEMYKEFAEHITNHYLGLCAALEPILSAKTKEEMASALVHILQSTGKVKDFLTDLMMSEVDRCGDNEHLIFRENTLATKAIEEYLKLVGQKYLQDALGEFIKALYESDENCEVDPSKCSAADLPEHQGNLKMCCELAFCKIINSYCVFPRELKEVFASWRQECSSRGRPDISERLISASLFLRFLCPAIMSPSLFNLLQEYPDDRTARTLTLIAKVTQNLANFAKFGSKEEYMSFMNQFLEHEWTNMQRFLLEISNPETLSNTAGFEGYIDLGRELSSLHSLLWEAVSQLEQSIVSKLGPLPRILRDVHTALSTPGSGQLPGTNDLASTPGSGSSSISAGLQKMVIENDLSGLIDFTRLPSPTPENKDLFFVTRSSGVQPSPARSSSYSEANEPDLQMANGGKSLSMVDLQDARTLDGEAGSPAGPDVLPTDGQAAAAQLVAGWPARATPVNLAGLATVRRAGQTPTTPGTSEGAPGRPQLLAPLSFQNPVYQMAAGLPLSPRGLGDSGSEGHSSLSSHSNSEELAAAAKLGSFSTAAEELARRPGELARRQMSLTEKGGQPTVPRQNSAGPQRRIDQPPPPPPPPPPAPRGRTPPNLLSTLQYPRPSSGTLASASPDWVGPSTRLRQQSSSSKGDSPELKPRAVHKQGPSPVSPNALDRTAAWLLTMNAQLLEDEGLGPDPPHRDRLRSKDELSQAEKDLAVLQDKLRISTKKLEEYETLFKCQEETTQKLVLEYQARLEEGEERLRRQQEDKDIQMKGIISRLMSVEEELKKDHAEMQAAVDSKQKIIDAQEKRIASLDAANARLMSALTQLKERYSMQARNGISPTNPTKLQITENGEFRNSSNC

binding [9]: binds
B2: Myc-DAB2IP (full length: 1-1189) (protein, UniProt Q5VWQ8 1-1189)
chain: MSAGGSARKSTGRSSYYYRLLRRPRLQRQRSRSRSRTRPARESPQERPGSRRSLPGSLSEKSPSMEPSAATPFRVTGFLSRRLKGSIKRTKSQPKLDRNHSFRHILPGFRSAAAAAADNERSHLMPRLKESRSHESLLSPSSAVEALDLSMEEEVVIKPVHSSILGQDYCFEVTTSSGSKCFSCRSAAERDKWMENLRRAVHPNKDNSRRVEHILKLWVIEAKDLPAKKKYLCELCLDDVLYARTTGKLKTDNVFWGEHFEFHNLPPLRTVTVHLYRETDKKKKKERNSYLGLVSLPAASVAGRQFVEKWYPVVTPNPKGGKGPGPMIRIKARYQTITILPMEMYKEFAEHITNHYLGLCAALEPILSAKTKEEMASALVHILQSTGKVKDFLTDLMMSEVDRCGDNEHLIFRENTLATKAIEEYLKLVGQKYLQDALGEFIKALYESDENCEVDPSKCSAADLPEHQGNLKMCCELAFCKIINSYCVFPRELKEVFASWRQECSSRGRPDISERLISASLFLRFLCPAIMSPSLFNLLQEYPDDRTARTLTLIAKVTQNLANFAKFGSKEEYMSFMNQFLEHEWTNMQRFLLEISNPETLSNTAGFEGYIDLGRELSSLHSLLWEAVSQLEQSIVSKLGPLPRILRDVHTALSTPGSGQLPGTNDLASTPGSGSSSISAGLQKMVIENDLSGLIDFTRLPSPTPENKDLFFVTRSSGVQPSPARSSSYSEANEPDLQMANGGKSLSMVDLQDARTLDGEAGSPAGPDVLPTDGQAAAAQLVAGWPARATPVNLAGLATVRRAGQTPTTPGTSEGAPGRPQLLAPLSFQNPVYQMAAGLPLSPRGLGDSGSEGHSSLSSHSNSEELAAAAKLGSFSTAAEELARRPGELARRQMSLTEKGGQPTVPRQNSAGPQRRIDQPPPPPPPPPPAPRGRTPPNLLSTLQYPRPSSGTLASASPDWVGPSTRLRQQSSSSKGDSPELKPRAVHKQGPSPVSPNALDRTAAWLLTMNAQLLEDEGLGPDPPHRDRLRSKDELSQAEKDLAVLQDKLRISTKKLEEYETLFKCQEETTQKLVLEYQARLEEGEERLRRQQEDKDIQMKGIISRLMSVEEELKKDHAEMQAAVDSKQKIIDAQEKRIASLDAANARLMSALTQLKERYSMQARNGISPTNPTKLQITENGEFRNSSNC
